Assay [1] addresses T1, Gal4p-Mms22p-DNA binding domain fusion protein (S. cerevisiae) (UniProt Q06164).
T1 sequence: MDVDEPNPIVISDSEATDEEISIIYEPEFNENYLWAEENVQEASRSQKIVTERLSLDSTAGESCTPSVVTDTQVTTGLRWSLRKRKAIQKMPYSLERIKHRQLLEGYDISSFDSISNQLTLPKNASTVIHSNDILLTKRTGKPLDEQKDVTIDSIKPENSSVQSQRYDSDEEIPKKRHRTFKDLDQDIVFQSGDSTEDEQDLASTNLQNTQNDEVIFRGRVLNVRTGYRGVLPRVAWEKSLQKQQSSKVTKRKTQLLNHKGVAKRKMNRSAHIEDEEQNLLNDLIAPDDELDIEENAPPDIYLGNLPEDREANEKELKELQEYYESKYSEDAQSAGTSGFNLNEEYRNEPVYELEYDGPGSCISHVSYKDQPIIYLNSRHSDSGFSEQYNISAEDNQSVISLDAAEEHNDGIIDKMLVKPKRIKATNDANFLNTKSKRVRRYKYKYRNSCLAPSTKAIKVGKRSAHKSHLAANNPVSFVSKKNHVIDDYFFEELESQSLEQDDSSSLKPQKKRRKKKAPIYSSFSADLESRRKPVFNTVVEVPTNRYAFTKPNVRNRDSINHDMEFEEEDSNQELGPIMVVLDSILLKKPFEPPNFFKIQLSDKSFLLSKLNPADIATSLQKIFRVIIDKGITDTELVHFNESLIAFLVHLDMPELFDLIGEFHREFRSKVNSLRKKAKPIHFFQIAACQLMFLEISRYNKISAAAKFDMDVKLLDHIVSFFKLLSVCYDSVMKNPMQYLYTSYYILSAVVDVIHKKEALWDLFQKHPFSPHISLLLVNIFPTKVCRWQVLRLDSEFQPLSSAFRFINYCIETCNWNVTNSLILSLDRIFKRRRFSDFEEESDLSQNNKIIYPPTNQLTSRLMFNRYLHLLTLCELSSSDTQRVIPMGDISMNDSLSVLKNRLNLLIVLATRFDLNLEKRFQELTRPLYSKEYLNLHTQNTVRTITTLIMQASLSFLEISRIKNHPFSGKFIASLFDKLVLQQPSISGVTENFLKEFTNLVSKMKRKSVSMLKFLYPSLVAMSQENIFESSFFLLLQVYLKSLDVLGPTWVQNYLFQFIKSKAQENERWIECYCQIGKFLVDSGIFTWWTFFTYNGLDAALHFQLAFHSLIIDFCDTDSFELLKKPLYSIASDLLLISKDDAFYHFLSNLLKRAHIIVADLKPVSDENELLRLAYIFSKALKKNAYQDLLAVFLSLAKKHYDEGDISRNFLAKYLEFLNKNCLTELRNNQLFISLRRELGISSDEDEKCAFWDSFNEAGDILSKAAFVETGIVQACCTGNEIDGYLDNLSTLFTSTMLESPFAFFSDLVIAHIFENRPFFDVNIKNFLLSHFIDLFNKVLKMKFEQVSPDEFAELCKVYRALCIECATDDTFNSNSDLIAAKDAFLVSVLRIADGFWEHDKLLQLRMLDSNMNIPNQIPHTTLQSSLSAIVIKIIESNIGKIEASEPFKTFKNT
The assay is described as follows: two-hybrid; Gal4 DNA-binding domain-Mms22 bait (pOBD2) against genome-wide array of pOAD fusions; each screen in duplicate, positives identified twice retested in a mini-array.

By UniProt entry, the sequences of proteins in these tests, tags left out.
UniProt P27705: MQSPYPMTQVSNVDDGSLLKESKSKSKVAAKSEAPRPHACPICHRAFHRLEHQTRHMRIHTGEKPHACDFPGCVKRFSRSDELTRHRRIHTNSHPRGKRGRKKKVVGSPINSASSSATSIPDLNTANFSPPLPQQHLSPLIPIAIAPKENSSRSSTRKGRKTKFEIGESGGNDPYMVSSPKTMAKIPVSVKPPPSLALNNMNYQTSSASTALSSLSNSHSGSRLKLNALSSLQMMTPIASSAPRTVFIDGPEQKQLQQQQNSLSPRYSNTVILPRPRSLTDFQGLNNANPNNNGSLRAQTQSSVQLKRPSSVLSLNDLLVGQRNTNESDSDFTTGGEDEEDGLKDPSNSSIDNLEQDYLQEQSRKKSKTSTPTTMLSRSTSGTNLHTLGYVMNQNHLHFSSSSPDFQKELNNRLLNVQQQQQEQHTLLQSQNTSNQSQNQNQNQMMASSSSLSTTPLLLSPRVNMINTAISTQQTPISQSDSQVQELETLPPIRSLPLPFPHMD

Assay [2] has as its target T1, Gal4p-Mms22p-DNA binding domain fusion protein (S. cerevisiae). Described as above. The source holds these as a separate data set.
Assay [3] deals with T2, Mms22-13Myc (S. cerevisiae) (UniProt Q06164).
T2 sequence: T1 sequence
The assay is described as follows: co-IP; whole cell extracts of the doubly tagged Mms22-13Myc/Rtt101-3HA haploid strain; IP with anti-Myc antibody, immunoblotting with anti-Myc and anti-HA; singly tagged Mms22-13Myc strain as control. A general note: A western blot detects proteins with antibodies after separation by electrophoresis.

Like-named read-outs stand apart in the source and are kept apart here. No constants are given. Whether binding was seen depends on the method and setting. For part of these data: In cells and extracts the contact can be indirect. Some results given as binding are weak or reduced against the parent protein; the word gives no strength. Where a sequence is shown, tags or fusion partners need not be part of it.

Turning to “MIG1 (pOAD fusion protein) (from UniProt P27705 1-504)”, the binding result in assay [1] was “no binding”.

B1: Rtt101/Cul8 (pOAD fusion protein) (protein, UniProt P47050 1-842)
chain: MINESVSKREGFHESISRETSASNALGLYNKFNDERNPRYRTMIAELHEFFHLTLAETITETDVKELECNKEKAAKFRKLMPKMLNNCRELTQRKSYIPYNSEFNGNDEKQKKFQLLHQHQIVLSFQEFCDELAKLIIDAHVLSFLTRCDYSYEIIPKNWTSFYKLFQYVMGAVGPIISYVPVNYPMIRKELGFETLTIFQYYDSKLFECMKSHFGREFSTLVSATIHHYIHMFPITNTMLEKEVPMLRIMSNCNFSIEGLSPKDFYMKTLRQYYCEESNLRPRLETFKNFKVLLTRNALLASLFSPEWVSDANDLFISHLLLNKKSISEYIEIGKDTYDEEKERYFKTETHFSLLMFRNAFEAKNMLSKFKEFCDDAVSEKLKAAYGSNHDTERLFDEVVQLANVDHLKIYSDSIEYHLCNLLGSTSKAIEQYVKYFESHLFIIVRKIKTTKKDLPRDMKIKYLNENLPILRLKFVNLPTFPNFFERSIFRKTILQSDQNSSFIKDILPVYKDSLMELFKQRIITNVSQEDEMRYRDQYQPYLSQFFQPVEVMADLRIKYASFLSFYENIEAAVKFGKTYNENNSKSFFPLIFDRERIPKVFQQSNEVKKNFVLPQEMDDTWNQFLRNYHEQNKVEDSDASKKELYPMWNLHHCEVESPYIIQDGTNLIFELTLFQTCVLTLFNESDHLTLQVISEQTKLAYKDLALVLKSFCNYKILTRDIDNTYSINESFKPDMKKVKNGKLRVVLPRTASLQSSNTGGERTSSAHHEGSNSQWTQELLKACITRSVKSERNGLDYDHLFETVKQQIKGFSVGEFKDALAKLLRDKFITRDESTATYKY
For B1, the binding result in assay [2] was “binds”.

B2: Rtt101-3HA (protein, UniProt P47050 1-842)
chain: B1 chain
B2: the binding entry in assay [3] is “binds”.

These data come from PMC2824753.
